From paper PMC7108717, “Dynamics in the murine norovirus capsid revealed by high-resolution cryo-EM” (PLoS Biology, 2020)
These are yes or no findings as the source states them, for the method shown. Some entries that bind do so weakly or less than the wild type.

Amino acid sequences for entries named in this document (tags omitted).
UniProt Q80J94: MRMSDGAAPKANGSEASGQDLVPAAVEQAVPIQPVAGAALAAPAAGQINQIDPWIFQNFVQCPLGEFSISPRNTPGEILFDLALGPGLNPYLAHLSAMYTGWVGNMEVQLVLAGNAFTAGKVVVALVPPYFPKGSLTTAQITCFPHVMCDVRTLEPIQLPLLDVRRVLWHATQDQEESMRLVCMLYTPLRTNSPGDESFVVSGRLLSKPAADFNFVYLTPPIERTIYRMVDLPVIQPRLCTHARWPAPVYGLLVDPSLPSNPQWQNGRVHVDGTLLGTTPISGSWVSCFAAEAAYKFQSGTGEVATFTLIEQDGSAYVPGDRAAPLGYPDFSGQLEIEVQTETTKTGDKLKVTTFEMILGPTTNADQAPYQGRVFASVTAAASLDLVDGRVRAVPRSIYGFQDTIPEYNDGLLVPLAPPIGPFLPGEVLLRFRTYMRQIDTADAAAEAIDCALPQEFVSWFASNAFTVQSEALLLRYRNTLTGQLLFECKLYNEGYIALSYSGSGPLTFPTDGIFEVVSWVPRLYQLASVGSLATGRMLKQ

Columns and labels:
[1] = biological target: murine norovirus (MNV-1 strain CW1P3) major structural protein VP1, wild type (murine norovirus (MNV-1 strain CW1P3)) (UniProt Q80J94); assay: cryo-EM structure; purified wtMNV virions heated to 61°C (heat-inactivated, hiMNV), icosahedral reconstruction and focussed classification of CC-type P domain dimers; both purified
[2] = biological target: murine norovirus (MNV-1 strain CW1P3) major structural protein VP1, wild type (murine norovirus (MNV-1 strain CW1P3)) (UniProt Q80J94); assay: cryo-EM structure; purified virions in EM buffer (10 mM HEPES pH 7.6, 200 mM NaCl, 5 mM MgCl2, 1 mM KCl, 1 mM CaCl2), icosahedral reconstruction and focussed classification of P domain dimers; both purified

Substance: murine norovirus (MNV-1 strain CW1P3) major structural protein VP1, wild type (from UniProt Q80J94 1-541)
- binding [1]: binds
- binding [2]: binds
